Patent US9056111B1, “Selective efflux inhibitors and related pharmaceutical compositions and methods of treatment” (STC.UNM, priority 2011, dated 2015)
Several values for one entry are separate records, joined by “and”; a condition that tells them apart may be missing. Equal entries are not always repeated. At least one read-out could not be matched to a standard name with certainty.

Test system: ABCB1 over-expressing Jurkat-DNR cells
Assay: Chemoreversal assay: potentiation of daunorubicin (DNR) killing
Assay type: cell-based
Settings: constant 100 nM DNR, varied inhibitor dose, read-out: CR50 ABCB1

Cc1nc2cc(-c3cccc(Cl)c3)nn2c(N2CCN(C(=O)c3ccco3)CC2)c1C [Compound 9]
EC50: 1.58 µM and 1.68 µM
